# Assay results taken from the supplement of paper PMC8728848.
# The list shows a part of the results.
# B1: SynCAM (Mus musculus) (protein)
# chain: MASAVLPSGSQCAAAAAVAAAAAPPGLRLRLLLLLLSAAALIPTGDGQNLFTKDVTVIEGEVATISCQVNKSDDSVIQLLNPNRQTIYFRDFRPLKDSRFQLLNFSSSELKVSLTNVSISDEGRYFCQLYTDPPQESYTTITVLVPPRNLMIDIQKDTAVEGEEIEVNCTAMASKPATTIRWFKGNKELKGKSEVEEWSDMYTVTSQLMLKVHKEDDGVPVICQVEHPAVTGNLQTQRYLEVQYKPQVHIQMTYPLQGLTREGDAFELTCEAIGKPQPVMVTWVRVDDEMPQHAVLSGPNLFINNLNKTDNGTYRCEASNIVGKAHSDYMLYVYDPPTTIPPP
# How the values were obtained:
# Experiment in all cases: glycan array binding signal (z-score within array); higher = stronger binding
# Conditions in all cases: glycan notation: IUPAC condensed, linker removed
# [1] = target: Gal(b1-4)GlcNAc(b1-3)Gal(b1-4)GlcNAc(b1-2)[Gal(b1-4)GlcNAc(b1-3)Gal(b1-4)GlcNAc(b1-6)]Man(a1-6)[Gal(b1-4)GlcNAc(b1-3)Gal(b1-4)GlcNAc(b1-2)Man(a1-3)]Man(b1-4)GlcNAc(b1-4)GlcNAc
# Outline: (§1)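 Arrays were curated from the Consortium for Functional Glycomics database, 3228 in total, and kept only where the protein sequence was available. Binding is expressed as a within-array Z-score. This score was averaged across arrays of the same protein sequence at different concentrations or buffers and across linkers, and negative values can be read as non-binding.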
# [2] = target: Gal(b1-4)GlcNAc(b1-3)Gal(b1-4)GlcNAc(b1-2)[Gal(b1-4)GlcNAc(b1-3)Gal(b1-4)GlcNAc(b1-6)]Man(a1-6)[Gal(b1-4)GlcNAc(b1-3)Gal(b1-4)GlcNAc(b1-2)Man(a1-3)]Man(b1-4)GlcNAc(b1-4)[Fuc(a1-6)]GlcNAc
# Outline: as §1
# [3] = target: Gal(b1-4)GlcNAc(b1-3)Gal(b1-4)GlcNAc(b1-3)Gal(b1-4)GlcNAc
# Outline: as §1
# [4] = target: Gal(b1-4)GlcNAc(b1-3)Gal(b1-4)GlcNAc(b1-3)Gal(b1-4)GlcNAc(b1-2)Man(a1-3)[Gal(b1-4)GlcNAc(b1-3)Gal(b1-4)GlcNAc(b1-3)Gal(b1-4)GlcNAc(b1-2)Man(a1-6)]Man(b1-4)GlcNAc(b1-4)GlcNAc
# Outline: as §1
# [5] = target: Gal(b1-4)GlcNAc(b1-3)Gal(b1-4)GlcNAc(b1-3)Gal(b1-4)GlcNAc(b1-2)Man(a1-3)[Gal(b1-4)GlcNAc(b1-3)Gal(b1-4)GlcNAc(b1-3)Gal(b1-4)GlcNAc(b1-2)Man(a1-6)]Man(b1-4)GlcNAc(b1-4)[Fuc(a1-6)]GlcNAc
# Outline: as §1
# [6] = target: Gal(b1-4)GlcNAc(b1-3)Gal(b1-4)GlcNAc(b1-3)Gal(b1-4)GlcNAc(b1-2)[Gal(b1-4)GlcNAc(b1-3)Gal(b1-4)GlcNAc(b1-3)Gal(b1-4)GlcNAc(b1-6)]Man(a1-6)[Gal(b1-4)GlcNAc(b1-3)Gal(b1-4)GlcNAc(b1-3)Gal(b1-4)GlcNAc(b1-2)Man(a1-3)]Man(b1-4)GlcNAc(b1-4)[Fuc(a1-6)]GlcNAc
# Outline: as §1
# [7] = target: Gal(b1-4)GlcNAc(b1-3)Gal(b1-4)GlcNAc(b1-3)Gal(b1-4)GlcNAc(b1-3)Gal(b1-4)GlcNAc(b1-2)Man(a1-3)[Gal(b1-4)GlcNAc(b1-3)Gal(b1-4)GlcNAc(b1-3)Gal(b1-4)GlcNAc(b1-3)Gal(b1-4)GlcNAc(b1-2)Man(a1-6)]Man(b1-4)GlcNAc(b1-4)GlcNAc
# Outline: as §1
# [8] = target: Gal(b1-4)GlcNAc(b1-3)Gal(b1-4)GlcNAc(b1-3)Gal(b1-4)GlcNAc(b1-3)Gal(b1-4)GlcNAc(b1-2)Man(a1-3)[Gal(b1-4)GlcNAc(b1-3)Gal(b1-4)GlcNAc(b1-3)Gal(b1-4)GlcNAc(b1-3)Gal(b1-4)GlcNAc(b1-2)Man(a1-6)]Man(b1-4)GlcNAc(b1-4)[Fuc(a1-6)]GlcNAc
# Outline: as §1
# [9] = target: Gal(b1-4)GlcNAc(b1-3)Gal(b1-4)GlcNAc(b1-3)Gal(b1-4)GlcNAc(b1-3)Gal(b1-4)GlcNAc(b1-2)[Gal(b1-4)GlcNAc(b1-3)Gal(b1-4)GlcNAc(b1-3)Gal(b1-4)GlcNAc(b1-3)Gal(b1-4)GlcNAc(b1-6)]Man(a1-6)[Gal(b1-4)GlcNAc(b1-3)Gal(b1-4)GlcNAc(b1-3)Gal(b1-4)GlcNAc(b1-3)Gal(b1-4)GlcNAc(b1-2)Man(a1-3)]Man(b1-4)GlcNAc(b1-4)[Fuc(a1-6)]GlcNAc
# Outline: as §1
# [10] = target: Gal(b1-4)GlcNAc(b1-3)Gal(b1-4)GlcNAc(b1-3)Gal(b1-4)GlcNAc(b1-3)Gal(b1-4)GlcNAc(b1-3)Gal(b1-4)GlcNAc(b1-2)Man(a1-3)[Gal(b1-4)GlcNAc(b1-3)Gal(b1-4)GlcNAc(b1-3)Gal(b1-4)GlcNAc(b1-3)Gal(b1-4)GlcNAc(b1-3)Gal(b1-4)GlcNAc(b1-2)Man(a1-6)]Man(b1-4)GlcNAc(b1-4)GlcNAc
# Outline: as §1
# [11] = target: Gal(b1-4)GlcNAc(b1-3)Gal(b1-4)GlcNAc(b1-3)Gal(b1-4)GlcNAc(b1-3)Gal(b1-4)GlcNAc(b1-3)Gal(b1-4)GlcNAc(b1-2)Man(a1-3)[Gal(b1-4)GlcNAc(b1-3)Gal(b1-4)GlcNAc(b1-3)Gal(b1-4)GlcNAc(b1-3)Gal(b1-4)GlcNAc(b1-3)Gal(b1-4)GlcNAc(b1-2)Man(a1-6)]Man(b1-4)GlcNAc(b1-4)[Fuc(a1-6)]GlcNAc
# Outline: as §1
# [12] = target: Gal(b1-4)GlcNAc(b1-3)Gal(b1-4)GlcNAc(b1-3)Gal(b1-4)GlcNAc(b1-3)Gal(b1-4)GlcNAc(b1-3)Gal(b1-4)GlcNAc(b1-2)[Gal(b1-4)GlcNAc(b1-3)Gal(b1-4)GlcNAc(b1-3)Gal(b1-4)GlcNAc(b1-3)Gal(b1-4)GlcNAc(b1-3)Gal(b1-4)GlcNAc(b1-6)]Man(a1-6)[Gal(b1-4)GlcNAc(b1-3)Gal(b1-4)GlcNAc(b1-3)Gal(b1-4)GlcNAc(b1-3)Gal(b1-4)GlcNAc(b1-3)Gal(b1-4)GlcNAc(b1-2)Man(a1-3)]Man(b1-4)GlcNAc(b1-4)[Fuc(a1-6)]GlcNAc
# Outline: as §1
# [13] = target: Gal(b1-4)GlcNAc(b1-3)Gal(b1-4)GlcNAc(b1-3)Gal(b1-4)GlcNAc(b1-3)Gal(b1-4)GlcNAc(b1-3)Gal(b1-4)GlcNAc(b1-3)Gal(b1-4)GlcNAc(b1-2)Man(a1-3)[Gal(b1-4)GlcNAc(b1-3)Gal(b1-4)GlcNAc(b1-3)Gal(b1-4)GlcNAc(b1-3)Gal(b1-4)GlcNAc(b1-3)Gal(b1-4)GlcNAc(b1-3)Gal(b1-4)GlcNAc(b1-2)Man(a1-6)]Man(b1-4)GlcNAc(b1-4)GlcNAc
# Outline: as §1
# [14] = target: Gal(b1-4)GlcNAc(b1-3)Gal(b1-4)GlcNAc(b1-3)GalNAc
# Outline: as §1
# [15] = target: Gal(b1-4)GlcNAc(b1-3)Gal(b1-4)GlcNAc(b1-3)[Gal(b1-4)GlcNAc(b1-3)Gal(b1-4)GlcNAc(b1-6)]GalNAc
# Outline: as §1
# [16] = target: Gal(b1-4)GlcNAc(b1-3)Gal(b1-4)GlcNAc(b1-6)[Gal(b1-3)]GalNAc
# Outline: as §1
# [17] = target: Gal(b1-4)GlcNAc(b1-3)Gal(b1-4)[Fuc(a1-3)]GlcNAc(b1-3)Gal(b1-4)[Fuc(a1-3)]GlcNAc
# Outline: as §1
# [18] = target: Gal(b1-4)GlcNAc(b1-3)GalNAc
# Outline: as §1
# [19] = target: Gal(b1-4)GlcNAc(b1-3)[Fuc(a1-3)GlcNAc(b1-6)]Gal(b1-4)Glc
# Outline: as §1
# [20] = target: Gal(b1-4)GlcNAc(b1-3)[Gal(b1-4)GlcNAc(b1-6)]Gal(b1-4)GlcNAc
# Outline: as §1
# [21] = target: Gal(b1-4)GlcNAc(b1-3)[GlcNAc(b1-6)]Gal(b1-4)GlcNAc
# Outline: as §1
# [22] = target: Gal(b1-4)GlcNAc(b1-6)Gal(b1-4)GlcNAc
# Outline: as §1
# [23] = target: Gal(b1-4)GlcNAc(b1-6)GalNAc
# Outline: as §1
# [24] = target: Gal(b1-4)GlcNAc(b1-6)[Gal(b1-3)]GalNAc
# Outline: as §1
# [25] = target: Gal(b1-4)GlcNAc(b1-6)[Gal(b1-4)GlcNAc(b1-3)]GalNAc
# Outline: as §1
# [26] = target: Gal(b1-4)GlcNAc6P
# Outline: as §1
# [27] = target: Gal(b1-6)Gal
# Outline: as §1
# [28] = target: Gal3S(b1-3)GalNAc
# Outline: as §1
# [29] = target: Gal3S(b1-3)GlcNAc
# Outline: as §1
# [30] = target: Gal3S(b1-3)[Fuc(a1-4)]GlcNAc
# Outline: as §1
# [31] = target: Gal3S(b1-4)Glc
# Outline: as §1
# [32] = target: Gal3S(b1-4)Glc6S
# Outline: as §1
# [33] = target: Gal3S(b1-4)GlcNAc
# Outline: as §1
# [34] = target: Gal3S(b1-4)[Fuc(a1-3)]Glc6S
# Outline: as §1
# [35] = target: Gal3S(b1-4)[Fuc(a1-3)]GlcNAc
# Outline: as §1
# [36] = target: Gal3S(b1-4)[Fuc(a1-3)]GlcNAc6S
# Outline: as §1
# [37] = target: Gal3S4S(b1-4)GlcNAc
# Outline: as §1
binder,measurement,setting,value
B1,glycan array binding signal (z-score),[1],0.285
same,glycan array binding signal (z-score),[2],0.69
same,glycan array binding signal (z-score),[3],-0.05
same,glycan array binding signal (z-score),[4],0.872
same,glycan array binding signal (z-score),[5],1.48
same,glycan array binding signal (z-score),[6],1.93
same,glycan array binding signal (z-score),[7],1.32
same,glycan array binding signal (z-score),[8],0.094
same,glycan array binding signal (z-score),[9],2.18
same,glycan array binding signal (z-score),[10],1.71
same,glycan array binding signal (z-score),[11],1.49
same,glycan array binding signal (z-score),[12],2.34
same,glycan array binding signal (z-score),[13],0.671
same,glycan array binding signal (z-score),[14],-1.14
same,glycan array binding signal (z-score),[15],0.945
same,glycan array binding signal (z-score),[16],0.463
same,glycan array binding signal (z-score),[17],0.706
same,glycan array binding signal (z-score),[18],-0.791
same,glycan array binding signal (z-score),[19],0.097
same,glycan array binding signal (z-score),[20],0.392
same,glycan array binding signal (z-score),[21],-0.62
same,glycan array binding signal (z-score),[22],-0.149
same,glycan array binding signal (z-score),[23],0.115
same,glycan array binding signal (z-score),[24],-0.072
same,glycan array binding signal (z-score),[25],0.694
same,glycan array binding signal (z-score),[26],-0.904
same,glycan array binding signal (z-score),[27],-1.06
same,glycan array binding signal (z-score),[28],-0.546
same,glycan array binding signal (z-score),[29],-0.217
same,glycan array binding signal (z-score),[30],0.105
same,glycan array binding signal (z-score),[31],1.95
same,glycan array binding signal (z-score),[32],1.42
same,glycan array binding signal (z-score),[33],0.193
same,glycan array binding signal (z-score),[34],3.97
same,glycan array binding signal (z-score),[35],0.274
same,glycan array binding signal (z-score),[36],1.22
same,glycan array binding signal (z-score),[37],1.07

# Random excerpt: 2 entries already listed
binder,measurement,setting,value
B1,glycan array binding signal (z-score),[1],0.285
same,glycan array binding signal (z-score),[24],-0.072
